Measurements from the supplement of paper PMC10849652.
The other results are listed elsewhere or left out.

By UniProt entry, the sequences of proteins in these tests, tags left out. Where a name states a change or a piece, a line headed by the entry shows the natural chain unless it says otherwise.
UniProt O43592: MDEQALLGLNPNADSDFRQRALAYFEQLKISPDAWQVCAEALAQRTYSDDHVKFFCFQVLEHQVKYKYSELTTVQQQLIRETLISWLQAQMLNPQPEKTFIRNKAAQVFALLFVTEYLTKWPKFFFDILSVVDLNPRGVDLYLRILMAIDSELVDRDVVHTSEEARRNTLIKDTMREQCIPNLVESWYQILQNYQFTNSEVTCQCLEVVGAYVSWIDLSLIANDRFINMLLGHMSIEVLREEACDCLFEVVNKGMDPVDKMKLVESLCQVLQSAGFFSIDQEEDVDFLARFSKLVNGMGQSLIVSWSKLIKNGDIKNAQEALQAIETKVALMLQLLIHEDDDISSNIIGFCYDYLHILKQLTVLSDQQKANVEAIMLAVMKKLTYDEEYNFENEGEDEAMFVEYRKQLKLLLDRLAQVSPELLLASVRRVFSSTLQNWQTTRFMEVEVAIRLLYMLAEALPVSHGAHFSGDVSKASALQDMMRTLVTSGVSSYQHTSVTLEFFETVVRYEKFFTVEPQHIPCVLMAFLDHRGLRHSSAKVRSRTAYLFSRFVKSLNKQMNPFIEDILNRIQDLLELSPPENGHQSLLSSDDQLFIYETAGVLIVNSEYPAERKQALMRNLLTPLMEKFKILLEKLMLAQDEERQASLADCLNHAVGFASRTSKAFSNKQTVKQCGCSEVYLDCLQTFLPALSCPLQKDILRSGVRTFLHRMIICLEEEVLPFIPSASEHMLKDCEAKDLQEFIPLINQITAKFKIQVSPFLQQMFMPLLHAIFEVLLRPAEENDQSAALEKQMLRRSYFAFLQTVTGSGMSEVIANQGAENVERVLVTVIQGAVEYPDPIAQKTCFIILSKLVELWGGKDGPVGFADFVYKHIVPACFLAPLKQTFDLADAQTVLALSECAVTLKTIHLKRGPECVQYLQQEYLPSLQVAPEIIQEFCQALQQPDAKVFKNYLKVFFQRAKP
UniProt P27348: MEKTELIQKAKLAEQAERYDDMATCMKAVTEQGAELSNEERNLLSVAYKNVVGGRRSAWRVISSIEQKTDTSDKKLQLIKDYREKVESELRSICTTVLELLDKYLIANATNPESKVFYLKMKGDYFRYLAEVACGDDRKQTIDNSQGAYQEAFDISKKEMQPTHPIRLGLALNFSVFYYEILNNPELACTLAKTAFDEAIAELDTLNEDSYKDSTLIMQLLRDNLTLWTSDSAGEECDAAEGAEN
UniProt Q86T24: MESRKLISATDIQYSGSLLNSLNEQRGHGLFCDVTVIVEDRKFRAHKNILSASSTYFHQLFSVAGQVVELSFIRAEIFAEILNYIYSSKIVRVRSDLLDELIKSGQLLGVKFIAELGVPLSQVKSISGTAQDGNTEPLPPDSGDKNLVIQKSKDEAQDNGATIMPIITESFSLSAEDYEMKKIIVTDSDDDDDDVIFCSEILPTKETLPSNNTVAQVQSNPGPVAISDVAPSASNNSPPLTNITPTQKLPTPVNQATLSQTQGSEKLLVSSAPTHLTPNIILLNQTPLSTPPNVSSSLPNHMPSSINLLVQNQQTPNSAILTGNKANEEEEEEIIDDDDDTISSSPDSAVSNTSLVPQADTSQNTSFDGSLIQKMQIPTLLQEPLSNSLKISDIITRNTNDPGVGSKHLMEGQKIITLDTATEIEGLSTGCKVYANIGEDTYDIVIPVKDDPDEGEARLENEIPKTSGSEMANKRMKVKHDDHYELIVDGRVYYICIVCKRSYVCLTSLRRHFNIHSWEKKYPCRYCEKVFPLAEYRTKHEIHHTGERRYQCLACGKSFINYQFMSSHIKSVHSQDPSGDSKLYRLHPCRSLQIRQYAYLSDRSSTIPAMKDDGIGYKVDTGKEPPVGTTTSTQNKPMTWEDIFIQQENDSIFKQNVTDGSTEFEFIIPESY
UniProt O15498: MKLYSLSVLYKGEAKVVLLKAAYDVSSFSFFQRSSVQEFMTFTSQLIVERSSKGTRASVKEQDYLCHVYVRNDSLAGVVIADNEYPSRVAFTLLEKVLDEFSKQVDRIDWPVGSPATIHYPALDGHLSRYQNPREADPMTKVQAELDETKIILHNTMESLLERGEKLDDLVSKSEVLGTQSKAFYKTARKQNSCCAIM
UniProt P67809, whole entry, looked up: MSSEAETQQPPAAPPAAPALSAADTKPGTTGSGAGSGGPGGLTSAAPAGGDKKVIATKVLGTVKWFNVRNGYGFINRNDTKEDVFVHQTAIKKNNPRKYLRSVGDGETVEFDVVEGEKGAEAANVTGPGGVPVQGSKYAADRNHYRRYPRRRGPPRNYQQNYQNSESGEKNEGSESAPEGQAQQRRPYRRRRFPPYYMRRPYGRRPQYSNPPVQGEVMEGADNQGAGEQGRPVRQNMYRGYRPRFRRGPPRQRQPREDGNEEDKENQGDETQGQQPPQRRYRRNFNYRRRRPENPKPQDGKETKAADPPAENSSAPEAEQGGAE
UniProt P49750: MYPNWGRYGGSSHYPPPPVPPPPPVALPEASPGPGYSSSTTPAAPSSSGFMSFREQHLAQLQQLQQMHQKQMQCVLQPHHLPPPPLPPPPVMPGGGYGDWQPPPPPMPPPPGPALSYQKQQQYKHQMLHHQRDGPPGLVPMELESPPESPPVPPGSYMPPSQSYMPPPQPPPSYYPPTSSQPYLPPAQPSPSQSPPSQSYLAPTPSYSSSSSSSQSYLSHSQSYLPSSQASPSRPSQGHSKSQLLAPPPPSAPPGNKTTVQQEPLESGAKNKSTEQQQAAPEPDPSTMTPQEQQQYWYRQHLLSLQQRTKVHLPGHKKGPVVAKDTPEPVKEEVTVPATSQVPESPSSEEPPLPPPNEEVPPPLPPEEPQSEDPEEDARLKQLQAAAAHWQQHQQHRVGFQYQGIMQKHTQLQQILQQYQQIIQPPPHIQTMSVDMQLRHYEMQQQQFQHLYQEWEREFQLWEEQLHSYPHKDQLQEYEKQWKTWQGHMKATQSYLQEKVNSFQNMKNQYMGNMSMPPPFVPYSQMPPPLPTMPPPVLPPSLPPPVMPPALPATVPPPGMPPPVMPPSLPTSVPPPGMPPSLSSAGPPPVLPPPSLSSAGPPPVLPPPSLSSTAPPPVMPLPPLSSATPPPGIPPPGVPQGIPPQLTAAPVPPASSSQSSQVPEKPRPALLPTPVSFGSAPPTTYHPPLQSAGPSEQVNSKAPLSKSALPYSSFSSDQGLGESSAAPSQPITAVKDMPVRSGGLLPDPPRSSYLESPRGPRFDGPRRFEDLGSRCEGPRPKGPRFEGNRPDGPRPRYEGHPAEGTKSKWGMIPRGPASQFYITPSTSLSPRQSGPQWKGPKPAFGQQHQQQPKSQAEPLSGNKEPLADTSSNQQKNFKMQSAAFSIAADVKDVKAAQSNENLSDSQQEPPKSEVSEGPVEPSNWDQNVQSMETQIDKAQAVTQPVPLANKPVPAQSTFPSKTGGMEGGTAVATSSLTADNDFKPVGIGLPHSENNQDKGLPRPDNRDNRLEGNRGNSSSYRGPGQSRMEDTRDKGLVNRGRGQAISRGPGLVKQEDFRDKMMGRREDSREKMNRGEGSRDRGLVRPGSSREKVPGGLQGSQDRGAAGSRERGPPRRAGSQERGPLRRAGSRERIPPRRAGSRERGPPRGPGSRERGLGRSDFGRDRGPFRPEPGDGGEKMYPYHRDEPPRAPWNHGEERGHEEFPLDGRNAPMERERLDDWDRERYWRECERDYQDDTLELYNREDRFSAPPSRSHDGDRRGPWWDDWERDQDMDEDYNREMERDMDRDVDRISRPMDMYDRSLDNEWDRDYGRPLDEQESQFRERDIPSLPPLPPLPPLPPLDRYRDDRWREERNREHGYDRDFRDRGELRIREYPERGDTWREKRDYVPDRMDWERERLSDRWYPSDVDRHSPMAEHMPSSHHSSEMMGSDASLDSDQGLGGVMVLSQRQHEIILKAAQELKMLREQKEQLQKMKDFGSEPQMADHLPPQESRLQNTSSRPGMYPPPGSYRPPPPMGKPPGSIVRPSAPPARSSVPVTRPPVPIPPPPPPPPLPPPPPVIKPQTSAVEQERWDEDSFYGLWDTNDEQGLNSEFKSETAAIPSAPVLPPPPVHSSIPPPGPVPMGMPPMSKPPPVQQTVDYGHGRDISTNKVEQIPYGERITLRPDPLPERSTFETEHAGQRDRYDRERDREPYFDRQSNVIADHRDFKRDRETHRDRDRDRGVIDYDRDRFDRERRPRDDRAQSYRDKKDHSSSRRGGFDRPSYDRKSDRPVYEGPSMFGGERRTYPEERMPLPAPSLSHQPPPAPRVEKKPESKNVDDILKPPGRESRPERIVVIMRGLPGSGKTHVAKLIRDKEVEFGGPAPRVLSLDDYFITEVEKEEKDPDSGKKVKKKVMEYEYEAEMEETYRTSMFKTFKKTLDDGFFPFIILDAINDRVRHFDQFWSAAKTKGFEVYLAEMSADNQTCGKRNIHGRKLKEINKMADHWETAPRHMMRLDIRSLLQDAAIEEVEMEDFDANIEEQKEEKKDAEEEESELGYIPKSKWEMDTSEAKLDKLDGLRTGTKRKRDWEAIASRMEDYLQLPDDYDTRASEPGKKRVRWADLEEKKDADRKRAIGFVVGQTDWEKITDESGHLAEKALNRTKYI
UniProt P07947, whole entry, looked up: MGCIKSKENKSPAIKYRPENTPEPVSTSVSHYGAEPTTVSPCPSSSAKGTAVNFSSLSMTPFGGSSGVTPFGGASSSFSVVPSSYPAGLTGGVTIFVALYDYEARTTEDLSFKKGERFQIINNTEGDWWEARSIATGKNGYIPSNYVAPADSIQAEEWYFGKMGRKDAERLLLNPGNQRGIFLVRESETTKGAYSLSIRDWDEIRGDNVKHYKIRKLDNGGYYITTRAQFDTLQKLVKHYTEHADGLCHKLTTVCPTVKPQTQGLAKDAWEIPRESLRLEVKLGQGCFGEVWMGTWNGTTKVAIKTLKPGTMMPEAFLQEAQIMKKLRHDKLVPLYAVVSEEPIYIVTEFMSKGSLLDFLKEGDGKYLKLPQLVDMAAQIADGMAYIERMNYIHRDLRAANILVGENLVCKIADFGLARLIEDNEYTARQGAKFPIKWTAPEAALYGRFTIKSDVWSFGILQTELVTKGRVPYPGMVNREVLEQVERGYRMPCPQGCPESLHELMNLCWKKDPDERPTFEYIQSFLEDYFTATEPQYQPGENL
UniProt Q13426: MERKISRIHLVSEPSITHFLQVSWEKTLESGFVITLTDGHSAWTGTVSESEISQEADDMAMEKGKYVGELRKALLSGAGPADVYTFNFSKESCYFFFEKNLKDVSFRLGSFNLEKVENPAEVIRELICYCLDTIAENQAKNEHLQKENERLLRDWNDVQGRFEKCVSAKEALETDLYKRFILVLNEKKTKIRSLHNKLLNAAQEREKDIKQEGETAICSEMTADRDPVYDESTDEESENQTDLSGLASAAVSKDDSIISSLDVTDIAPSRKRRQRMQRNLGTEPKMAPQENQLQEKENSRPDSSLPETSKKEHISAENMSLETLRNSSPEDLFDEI
UniProt O95159: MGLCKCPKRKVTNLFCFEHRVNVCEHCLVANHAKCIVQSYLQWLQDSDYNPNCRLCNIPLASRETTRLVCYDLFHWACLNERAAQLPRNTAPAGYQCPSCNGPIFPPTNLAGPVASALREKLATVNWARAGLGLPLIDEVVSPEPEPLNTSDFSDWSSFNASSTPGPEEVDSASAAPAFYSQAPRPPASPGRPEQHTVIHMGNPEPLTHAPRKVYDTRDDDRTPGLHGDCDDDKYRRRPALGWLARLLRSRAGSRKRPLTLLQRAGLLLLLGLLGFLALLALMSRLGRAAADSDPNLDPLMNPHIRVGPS
UniProt Q9Y5A9: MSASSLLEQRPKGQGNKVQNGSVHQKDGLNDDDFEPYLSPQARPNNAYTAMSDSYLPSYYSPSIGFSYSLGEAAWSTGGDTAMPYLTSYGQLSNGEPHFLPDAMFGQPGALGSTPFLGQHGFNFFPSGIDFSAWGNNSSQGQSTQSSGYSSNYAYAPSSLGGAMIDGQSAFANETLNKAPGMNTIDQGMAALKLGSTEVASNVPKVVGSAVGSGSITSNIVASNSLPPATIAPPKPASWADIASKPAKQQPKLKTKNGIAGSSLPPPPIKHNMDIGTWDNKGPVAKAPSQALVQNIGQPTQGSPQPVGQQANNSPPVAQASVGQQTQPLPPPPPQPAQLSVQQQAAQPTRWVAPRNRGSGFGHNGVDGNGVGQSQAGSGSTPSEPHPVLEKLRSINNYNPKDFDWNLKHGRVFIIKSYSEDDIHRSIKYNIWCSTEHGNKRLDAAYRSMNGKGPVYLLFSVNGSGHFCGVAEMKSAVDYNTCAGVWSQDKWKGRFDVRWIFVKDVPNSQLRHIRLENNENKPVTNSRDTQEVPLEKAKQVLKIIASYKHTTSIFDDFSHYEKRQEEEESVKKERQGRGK
UniProt P62258: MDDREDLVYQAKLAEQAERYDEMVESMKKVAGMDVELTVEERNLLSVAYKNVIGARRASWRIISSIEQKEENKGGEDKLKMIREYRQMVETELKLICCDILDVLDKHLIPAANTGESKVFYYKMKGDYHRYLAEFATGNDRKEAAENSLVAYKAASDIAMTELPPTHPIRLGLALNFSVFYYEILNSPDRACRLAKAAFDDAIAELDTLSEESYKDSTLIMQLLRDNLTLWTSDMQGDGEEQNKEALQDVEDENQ

Experiments:
Assay in all cases: log2 fold change, soluble protein after heating vs DMSO (PISA); higher = thermal stabilisation; K562 lysate, 10 uM; active = over 0.2 and 3.5 SD of the protein, either way, in both replicates (recomputed)
erlotinib = compound: C#Cc1cccc(Nc2ncnc3cc(OCCOC)c(OCCOC)cc23)c1 [erlotinib]
Summary of the method: (§1)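 To prepare the extract, K562 pellets were dounce-homogenised in PBS pH 7.4 with 1 mM MgCl2, giving crude material at 1 mg/mL protein. This was treated with 10 μM compound for 30 min, then heated in aliquots for 3 min over 48°C-58°C before pooling and addition of NP-40 to 0.5% at 4°C. Centrifugation at 21,000xg for 90 min left soluble protein in the supernatant, which TMTpro 16plex LC-MS/MS quantified with equalised channel sums. Results are log-two fold changes in thermal stability compared with solvent controls, from duplicates.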

[1] = compound: C/C(=N\NC(=O)C1=CC(=CC=C1)S(=O)(=O)N2CCOCC2)/C3=C(C=CC(=C3)Cl)O
Summary of the method: as §1

[2] = compound: C1=CC(=CC=C1C2=NC3=C(N2)C=C(C=C3)C(=O)N)OC4=CC=C(C=C4)Cl
Summary of the method: as §1

[3] = compound: C1=CC2=C(C=CC(=C2)/C=C\3/C(=O)NC(=NCC4=CC=CS4)S3)N=C1
Summary of the method: as §1

[4] = compound: C1=CC2=NC=CN=C2C=C1/C=C/3\C(=O)NC(=O)S3
Summary of the method: as §1

[5] = compound: C1=CC=C(C=C1)C2=NC(=C(N2)C3=CC=NC=C3)C4=CC(=C(C=C4)Cl)O
Summary of the method: as §1

[6] = compound: C1=CC=C2C(=C1)C3=NNC4=CC=CC(=C43)C2=O
Summary of the method: as §1

[7] = compound: C1CCN(C1)C(=O)NC2=CC=CC(=C2)NC3=NC=C(C(=N3)NCCC4=CN=CN4)Br
Summary of the method: as §1

[8] = compound: C1CN(CCC1(CC2=CC=C(C=C2)Cl)N)C3=NC=NC4=C3C=CN4
Summary of the method: as §1

IRAK-1-4 Inhibitor I = compound: C1COCCN1CCN2C3=CC=CC=C3N=C2NC(=O)C4=CC(=CC=C4)[N+](=O)[O-] [IRAK-1-4 Inhibitor I]
Summary of the method: as §1

ibrutinib = compound: C=CC(=O)N1CCC[C@@H](n2nc(-c3ccc(Oc4ccccc4)cc3)c3c(N)ncnc32)C1 [ibrutinib]
Summary of the method: as §1

[9] = compound: CC(=O)c1cnc2ccc(-c3cc(Cl)c(O)c(Cl)c3)nc2c1N[C@H]1CC[C@H](CN(C)C)CC1
Summary of the method: as §1

ralimetinib = compound: CC(C)(C)Cn1c(N)nc2ccc(-c3[nH]c(C(C)(C)C)nc3-c3ccc(F)cc3)nc21 [ralimetinib]
Summary of the method: as §1

[10] = compound: CC(C)(O)CC(=O)NCCn1ccc2ncnc(Nc3ccc(Oc4cccc(C(F)(F)F)c4)c(Cl)c3)c21
Summary of the method: as §1

[11] = compound: CC(C)C1=C2N=C(C=C(N2N=C1)NCC3=CC=CC=C3)NCCCCCCN
Summary of the method: as §1

[12] = compound: CC1=C(C(CC(=O)N1)C2=CC=C(C=C2)C(F)(F)F)C(=O)NC3=C(C=C4C(=C3)C=NN4)F
Summary of the method: as §1

[13] = compound: CC1=C(C2=C(C=C1)C(=O)C3=CC=CC=C3N2CCCN)C
Summary of the method: as §1

[14] = compound: CC1=C(C=C(C=C1)NC(=O)C2=CC(=CC=C2)C(C)(C)C#N)NC3=CC4=C(C=C3)N=CN(C4=O)C
Summary of the method: as §1

[15] = compound: CC1=C(C=C(C=C1)NC(=O)C2=CC(=CC=C2)N(C)C)NC(=O)C3=CC=C(C=C3)O
Summary of the method: as §1

[16] = compound: CC1=CC=C(C=C1)SC2=C3C=C(SC3=CN=C2)C(=O)N
Summary of the method: as §1

| Target | log2 fold change (erlotinib) | log2 fold change [1] | log2 fold change [2] | log2 fold change [3] | log2 fold change [4] | log2 fold change [5] | log2 fold change [6] | log2 fold change [7] | log2 fold change [8] | log2 fold change (IRAK-1-4 Inhibitor I) | log2 fold change (ibrutinib) | log2 fold change [9] | log2 fold change (ralimetinib) | log2 fold change [10] | log2 fold change [11] | log2 fold change [12] | log2 fold change [13] | log2 fold change [14] | log2 fold change [15] | log2 fold change [16] |
| --- | --- | --- | --- | --- | --- | --- | --- | --- | --- | --- | --- | --- | --- | --- | --- | --- | --- | --- | --- | --- |
| XPOT (UniProt O43592) | inactive: 0.017 | inactive: -0.013 | inactive: -0.041 | inactive: -0.003 | inactive: 0.032 | inactive: -0.011 | inactive: -0.021 | inactive: -0.004 | inactive: 0.025 | inactive: 0.016 | inactive: -0.012 | inactive: 0.009 | inactive: 0.006 | inactive: -0.038 | inactive: -0.014 | inactive: 0 | inactive: 0.013 | inactive: 0.016 | inactive: 0.007 | inactive: 0.018 |
| YWHAQ (UniProt P27348) | inactive: 0.026 | inactive: 0.046 | inactive: 0.016 | inactive: 0.012 | inactive: 0.017 | inactive: 0.014 | inactive: 0.021 | inactive: -0.006 | inactive: 0.022 | inactive: 0.013 | inactive: -0.011 | inactive: -0.001 | inactive: -0.007 | inactive: 0.028 | inactive: 0 | inactive: -0.054 | inactive: 0.007 | inactive: -0.001 | inactive: 0.01 | inactive: 0.01 |
| ZBTB33 (UniProt Q86T24) | inactive: 0 | inactive: 0.012 | inactive: 0.101 | inactive: 0.062 | inactive: 0.144 | inactive: -0.025 | inactive: -0.101 | inactive: -0.053 | inactive: 0.068 | inactive: -0.042 | inactive: 0.258 | inactive: 0.183 | inactive: -0.058 | inactive: -0.158 | inactive: 0.141 | inactive: -0.027 | inactive: 0.109 | inactive: 0.129 | inactive: 0.044 | inactive: 0.109 |
| YTHDF3 (UniProt Q7Z739) | inactive: -0.009 | inactive: -0.003 | inactive: -0.035 | inactive: -0.029 | inactive: 0.089 | inactive: -0.183 | inactive: 0.003 | inactive: -0.04 | inactive: 0.036 | inactive: 0.12 | inactive: -0.026 | inactive: 0.066 | inactive: -0.014 | inactive: -0.033 | inactive: 0.008 | inactive: 0.017 | inactive: 0.074 | active: -0.334 | inactive: 0.009 | inactive: 0.096 |
| ZFPM1 (UniProt Q8IX07) | inactive: 0.015 | inactive: 0.039 | inactive: 0.047 | inactive: -0.041 | inactive: 0.005 | inactive: -0.01 | inactive: 0.021 | inactive: 0.031 | inactive: -0.01 | inactive: 0.077 | inactive: 0.004 | inactive: -0.034 | inactive: 0.013 | inactive: -0.067 | inactive: 0.02 | inactive: 0.01 | inactive: 0.003 | inactive: 0.033 | inactive: 0 | inactive: -0.026 |
| YKT6 (UniProt O15498) | inactive: -0.064 | inactive: -0.008 | inactive: -0.027 | inactive: 0.021 | inactive: 0.01 | inactive: -0.001 | inactive: 0.011 | inactive: 0.003 | inactive: 0.007 | inactive: -0.02 | inactive: -0.01 | inactive: 0.02 | inactive: -0.011 | inactive: -0.003 | inactive: -0.033 | inactive: 0 | inactive: 0.001 | inactive: -0.013 | inactive: -0.021 | inactive: -0.029 |
| ZC2HC1A (UniProt Q96GY0) | inactive: 0 | inactive: -0.134 | inactive: 0.058 | inactive: 0.18 | inactive: 0.073 | inactive: -0.043 | inactive: -0.1 | inactive: -0.054 | inactive: 0.009 | inactive: -0.012 | inactive: -0.029 | inactive: -0.006 | inactive: 0.037 | inactive: -0.056 | inactive: -0.038 | inactive: -0.016 | inactive: -0.076 | inactive: 0.045 | inactive: -0.003 | inactive: 0.006 |
| YARS2 (UniProt Q9Y2Z4) | inactive: 0.071 | inactive: 0.015 | inactive: 0.009 | inactive: 0.057 | inactive: 0.006 | inactive: -0.062 | inactive: -0.072 | inactive: 0.029 | inactive: -0.003 | inactive: 0.019 | inactive: -0.01 | inactive: -0.006 | inactive: 0.032 | inactive: -0.037 | inactive: 0.018 | inactive: -0.04 | inactive: -0.02 | inactive: -0.036 | inactive: -0.02 | inactive: 0.028 |
| YBX1 (UniProt P67809) | inactive: 0.011 | inactive: -0.065 | inactive: -0.009 | inactive: 0 | inactive: -0.048 | inactive: 0.018 | inactive: 0.01 | inactive: 0.014 | inactive: -0.011 | inactive: 0.021 | inactive: 0.034 | inactive: -0.01 | inactive: -0.02 | inactive: -0.034 | inactive: -0.019 | inactive: -0.008 | inactive: -0.023 | inactive: 0.002 | inactive: 0.001 | inactive: -0.028 |
| YLPM1 (UniProt P49750) | inactive: 0.026 | inactive: -0.04 | inactive: 0.035 | inactive: -0.043 | inactive: -0.018 | inactive: -0.004 | inactive: 0.022 | inactive: 0.044 | inactive: 0.019 | inactive: 0.027 | inactive: 0.028 | inactive: -0.044 | inactive: -0.002 | inactive: 0.022 | inactive: -0.006 | active: 0.301 | inactive: -0.031 | inactive: -0.017 | inactive: 0 | inactive: -0.046 |
| YES1 (UniProt P07947) | inactive: -0.045 | inactive: 0.064 | inactive: 0.005 | inactive: -0.045 | inactive: -0.023 | inactive: -0.031 | inactive: -0.105 | inactive: 0.027 | inactive: 0.016 | inactive: 0.003 | active: 0.988 | inactive: -0.012 | inactive: -0.259 | active: 0.511 | inactive: 0.061 | inactive: 0.2 | inactive: 0.044 | inactive: 0.192 | inactive: -0.005 | inactive: -0.131 |
| XRCC4 (UniProt Q13426) | inactive: -0.027 | inactive: -0.023 | inactive: -0.003 | inactive: -0.002 | inactive: 0.013 | inactive: -0.015 | inactive: 0.014 | inactive: 0.004 | inactive: -0.01 | inactive: 0.022 | inactive: 0.056 | inactive: -0.007 | inactive: 0 | inactive: -0.055 | inactive: -0.042 | inactive: -0.021 | inactive: 0.009 | inactive: -0.035 | inactive: 0.009 | inactive: 0 |
| ZFPL1 (UniProt O95159) | inactive: -0.004 | inactive: -0.017 | inactive: -0.025 | inactive: 0.161 | inactive: -0.086 | inactive: -0.013 | inactive: -0.048 | inactive: -0.028 | inactive: 0.02 | inactive: 0.085 | inactive: 0.103 | inactive: -0.179 | inactive: -0.054 | inactive: 0.306 | inactive: -0.077 | inactive: 0.033 | inactive: 0.028 | inactive: 0.066 | inactive: 0.014 | inactive: -0.022 |
| YTHDF2 (UniProt Q9Y5A9) | inactive: -0.023 | inactive: -0.015 | inactive: 0.021 | inactive: 0.001 | inactive: 0.106 | inactive: -0.153 | inactive: 0.007 | inactive: 0.002 | inactive: 0.011 | inactive: 0.094 | inactive: -0.043 | inactive: 0.038 | inactive: -0.03 | inactive: -0.011 | inactive: 0.07 | inactive: 0.059 | inactive: 0.066 | inactive: -0.185 | inactive: 0.028 | inactive: 0.038 |
| XRN1 (UniProt Q8IZH2) | inactive: 0.047 | inactive: 0.056 | inactive: -0.017 | inactive: 0.055 | inactive: 0.133 | inactive: 0.036 | inactive: -0.034 | inactive: 0.013 | inactive: -0.127 | inactive: 0.019 | inactive: -0.113 | inactive: 0.024 | inactive: 0.03 | inactive: -0.032 | inactive: 0.067 | inactive: 0.026 | inactive: 0.036 | inactive: -0.049 | inactive: 0.024 | inactive: 0.005 |
| YWHAE (UniProt P62258) | inactive: -0.007 | inactive: -0.018 | inactive: 0.022 | inactive: -0.008 | inactive: -0.002 | inactive: 0.004 | inactive: 0.007 | inactive: 0.003 | inactive: 0.001 | inactive: -0.006 | inactive: 0.017 | inactive: -0.007 | inactive: 0.004 | inactive: -0.01 | inactive: -0.02 | inactive: -0.025 | inactive: 0.009 | inactive: 0.006 | inactive: 0.001 | inactive: -0.027 |

Exported tab-delimited: part of the list above.
Target	log2 fold change (erlotinib)	log2 fold change [1]	log2 fold change [2]	log2 fold change [3]	log2 fold change [4]	log2 fold change [5]	log2 fold change [6]	log2 fold change [7]	log2 fold change [8]	log2 fold change (IRAK-1-4 Inhibitor I)	log2 fold change (ibrutinib)	log2 fold change [9]	log2 fold change (ralimetinib)	log2 fold change [10]	log2 fold change [11]	log2 fold change [12]	log2 fold change [13]	log2 fold change [14]	log2 fold change [15]	log2 fold change [16]
ZFPM1 (UniProt Q8IX07)	inactive: 0.015	inactive: 0.039	inactive: 0.047	inactive: -0.041	inactive: 0.005	inactive: -0.01	inactive: 0.021	inactive: 0.031	inactive: -0.01	inactive: 0.077	inactive: 0.004	inactive: -0.034	inactive: 0.013	inactive: -0.067	inactive: 0.02	inactive: 0.01	inactive: 0.003	inactive: 0.033	inactive: 0	inactive: -0.026
YKT6 (UniProt O15498)	inactive: -0.064	inactive: -0.008	inactive: -0.027	inactive: 0.021	inactive: 0.01	inactive: -0.001	inactive: 0.011	inactive: 0.003	inactive: 0.007	inactive: -0.02	inactive: -0.01	inactive: 0.02	inactive: -0.011	inactive: -0.003	inactive: -0.033	inactive: 0	inactive: 0.001	inactive: -0.013	inactive: -0.021	inactive: -0.029
